Measurements reported in PubChem BioAssay AID1259308 (NCATS, 2017).
The whole screen tested about 59,000 reagents; this is an unselected part. Over the whole deposit, about 1,510 (2.6%) were called active. 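Calls use total luciferase alone and ignore viability, so some active siRNAs may act by altering cell number.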 Unmarked entries are inactive. Reagents against one gene are numbered here.

Test: 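Genes whose loss raises luciferase production in HEK293 cells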 (primary screen)
System: human HEK293 embryonic kidney cells stably expressing firefly luciferase (HEK-CMV-Luc2-Hygro)
Reagent: single siRNA against human genes, 0.8 pmol siRNA per well
Duration: 72 h
Measured: 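Luciferase light (ONE-Glo) measured on one replicate plate set and viability (CellTiter-Glo) on the other, scaled to a negative control siRNA, with robust z-scores and luciferase per cell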
Direction: total luciferase, z-score and total luciferase, % of control: higher = more reporter protein produced; luciferase per cell, z-score: higher = more reporter output per viable cell; viable cells, % of control: higher = more viable cells
Call rule: 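Active when the median/MAD z-score for overall luciferase is greater than 3; a gene was taken forward for validation with new siRNAs if at least two of its three siRNAs passed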
Calls: active = raised luciferase; inactive = no rise

The opening 5 entries, ahead of the listing:
target gene	siRNA no.	total luciferase, z-score	total luciferase, % of control	luciferase per cell, z-score	viable cells, % of control
GLA (galactosidase alpha)	1	0.0588	83.1	0.14	89.4
GLA (galactosidase alpha)	2	1.55	113	0.322	116
GLA (galactosidase alpha)	3	-1.3	56	-1.1	83.6
MEPE (matrix extracellular phosphoglycoprotein)	1	-0.316	75.6	-0.12	87.2
MEPE (matrix extracellular phosphoglycoprotein)	2	-0.916	63.7	-0.19	74.8

Main list, from the start:
target gene	siRNA no.	total luciferase, z-score	total luciferase, % of control	luciferase per cell, z-score	viable cells, % of control
GLA (galactosidase alpha)	1	0.0588	83.1	0.14	89.4
GLA (galactosidase alpha)	2	1.55	113	0.322	116
GLA (galactosidase alpha)	3	-1.3	56	-1.1	83.6
MEPE (matrix extracellular phosphoglycoprotein)	1	-0.316	75.6	-0.12	87.2
MEPE (matrix extracellular phosphoglycoprotein)	2	-0.916	63.7	-0.19	74.8
MEPE (matrix extracellular phosphoglycoprotein)	3	1.39	110	0.574	105
MLLT3 (MLLT3 super elongation complex subunit)	1	-1.79	46.2	-2.53	101
MLLT3 (MLLT3 super elongation complex subunit)	2	0.147	84.8	0.00848	94.6
MLLT3 (MLLT3 super elongation complex subunit)	3	-0.53	71.3	-0.647	94.5
NCOA4 (nuclear receptor coactivator 4)	1	0.115	84.2	-0.108	96.8
NCOA4 (nuclear receptor coactivator 4)	2	1.81	118	1.48	89.3
NCOA4 (nuclear receptor coactivator 4)	3	0.564	93.1	0.394	93.8
FUT9 (fucosyltransferase 9)	1	-0.734	67.3	0.686	62.8
FUT9 (fucosyltransferase 9)	2	1.59	113	0.9	100
FUT9 (fucosyltransferase 9)	3	0.231	86.5	-0.146	100
IL10RB (interleukin 10 receptor subunit beta)	1	-0.992	62.2	-0.202	73.2
IL10RB (interleukin 10 receptor subunit beta)	2	-1.39	54.2	-1.1	80.8
IL10RB (interleukin 10 receptor subunit beta)	3	-0.904	63.9	0.127	69.1
ARL3 (ARF like GTPase 3)	1	-0.0798	80.3	-0.5	102
ARL3 (ARF like GTPase 3)	2	-0.169	78.5	-0.47	99.3
ARL3 (ARF like GTPase 3)	3	-0.476	72.4	-0.126	83.6
ZNF684 (zinc finger protein 684)	1	-0.0651	80.6	0.117	87.3
ZNF684 (zinc finger protein 684)	2	-0.256	76.8	-0.217	90.9
ZNF684 (zinc finger protein 684)	3	-0.216	77.6	-0.327	94.5
MTCL2 (microtubule crosslinking factor 2)	1	0.392	89.7	0.246	93.9
MTCL2 (microtubule crosslinking factor 2)	2	-0.986	62.3	-0.944	89.2
MTCL2 (microtubule crosslinking factor 2)	3	0.294	87.7	0.163	93.9
CHRNA6 (cholinergic receptor nicotinic alpha 6 subunit)	1	0.499	91.8	0.552	88.7
CHRNA6 (cholinergic receptor nicotinic alpha 6 subunit)	2	-0.512	71.7	-0.674	95.7
CHRNA6 (cholinergic receptor nicotinic alpha 6 subunit)	3	-0.839	65.2	-1.56	110
FJX1 (four-jointed box kinase 1)	1	-0.789	66.2	-1.06	97.9
FJX1 (four-jointed box kinase 1)	2	-1.01	61.7	-1.35	98.4
FJX1 (four-jointed box kinase 1)	3	0.391	89.7	-0.28	108
MS4A4A (membrane spanning 4-domains A4A)	1	1.17	105	2.5	60.8
MS4A4A (membrane spanning 4-domains A4A)	2	0.35	88.8	1.83	61.4
MS4A4A (membrane spanning 4-domains A4A)	3	-0.913	63.7	-1.31	100
GTF2IRD1 (GTF2I repeat domain containing 1)	1	-0.388	74.2	0.575	71.2
GTF2IRD1 (GTF2I repeat domain containing 1)	2	-1.22	57.6	-0.998	83.7
GTF2IRD1 (GTF2I repeat domain containing 1)	3	0.655	94.9	0.433	94.6
C2orf66 (chromosome 2 open reading frame 66)	1	1.15	105	1.3	83
C2orf66 (chromosome 2 open reading frame 66)	2	-0.544	71.1	0.281	73.8
C2orf66 (chromosome 2 open reading frame 66)	3	-0.844	65.1	-0.61	85.4
ACE2 (angiotensin converting enzyme 2)	1	0.498	91.8	0.468	90.7
ACE2 (angiotensin converting enzyme 2)	2	1.42	110	1.42	84.8
ACE2 (angiotensin converting enzyme 2)	3	3.32 (active)	148	1.82	102
ATRN (attractin)	1	-0.895	64.1	0.00504	71.5
ATRN (attractin)	2	-1.15	58.9	-1.38	94.6
ATRN (attractin)	3	0.708	96	0.393	96.7
SERPINC1 (serpin family C member 1)	1	3.31 (active)	148	1.62	108
SERPINC1 (serpin family C member 1)	2	-0.614	69.7	-0.328	84.9
SERPINC1 (serpin family C member 1)	3	-0.422	73.5	-0.386	90.9
SEBOX (SEBOX homeobox)	1	-0.661	68.7	-0.212	81.2
SEBOX (SEBOX homeobox)	2	-0.433	73.3	-0.765	100
SEBOX (SEBOX homeobox)	3	-0.0419	81.1	0.0524	89.3
MT1X (metallothionein 1X)	1	-0.571	70.5	-0.876	99.3
MT1X (metallothionein 1X)	2	2.01	122	1.95	81.5
MT1X (metallothionein 1X)	3	0.666	95.1	1.42	73.1
